{
  "sequences": {"note": "Chains of the proteins cited; added tags and fusions are not shown. Chains listed by the source or under a name are the forms on record and can include a tag or linker.", "VEGF, one chain, as listed by the source": "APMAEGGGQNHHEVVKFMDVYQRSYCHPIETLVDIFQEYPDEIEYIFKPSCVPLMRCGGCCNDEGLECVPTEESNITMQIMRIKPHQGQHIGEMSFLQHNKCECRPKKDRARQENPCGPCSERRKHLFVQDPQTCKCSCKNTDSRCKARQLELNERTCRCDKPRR"},
  "source": "patent US6426335",
  "key": {"[1]": {"test_system": "VEGF", "test": "inhibition of the protein", "conditions": "2'-F at 1,6-7,10,14,16-18,20,22,24-26, 2'-OMe at 2-3,8-9,11-13,15,19,21,23,27, 3'-3' idT at 28, purified recombinant protein"}, "[2]": {"test_system": "VEGF165 (Homo sapiens)", "test": "EMSA", "conditions": "as NX213, plus dialkyl glycerol (1,2-di-O-octadecyl-sn-glycerol) lipid conjugate; competition EMSA, comparable to NX213; PBS 0.01% HSA 37C; VEGF isoform not stated; purified recombinant protein; variant of NX213"}, "[3]": {"test_system": "VEGF165 (Homo sapiens)", "test": "filter binding", "conditions": "2'-F pyrimidines; 3'-3' dT cap (N22) [22 (3'-3' dT cap); all C/U 2'-F]; 37C; purified recombinant protein; letters built from the parent sequence and the stated change; variant of t2"}},
  "note": "For some of these results: Construct, isoform or probe ends are uncertain for at least one entry.",
  "data": [
    {"sequence": "CGGAAUCAGUGAAUGCUUAUACAUCCG [NX31838-PL liposome]", "values": [
      {"measurement": "functional effect of the aptamer", "setting": "[1]; phospholipid, in liposome, blocks VEGF-induced vascular leakage in guinea pig skin, reduced activity at 100 nM", "value": "active"}
    ]},
    {"sequence": "TTTTACCCUGAUGGUAGACGCCGGGGUGTTTTT [NX278]", "values": [
      {"measurement": "binding result", "setting": "[2]", "value": "binds"}
    ]},
    {"sequence": "ACCGAUGGAAUUUUUGGACGCT [t2e]", "values": [
      {"measurement": "Kd", "setting": "[3]", "value": "> 100", "unit": "nM"}
    ]},
    {"sequence": "CGGAAUCAGUGAAUGCUUAUACAUCCG [NX31838-20K PEG]", "values": [
      {"measurement": "functional effect of the aptamer", "setting": "[1]; 20K PEG, blocks VEGF-induced vascular leakage in guinea pig skin down to 100 nM, lost at 30 nM", "value": "active"}
    ]}
  ]
}
